PubChem BioAssay AID1053208 | Peter MacCallum Cancer Centre, 2014

Screen: 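Genes whose silencing cuts survival of bone tumour cells only with doxorubicin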 (primary screen)
System: mouse osteosarcoma cells, early-passage culture from an engineered mouse model of fibroblastic bone tumour
Knock-down reagent: siRNA pool against mouse genes, 40 nM
Time to read-out: about 120 h (48 h before drug, then 72 h with drug)
Conditions: doxorubicin 100 nM for 72 h, roughly 30-40% inhibitory dose
Read-out: 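Luminescent ATP signal taken as viability with or without 100 nM doxorubicin for 72 h; mean of two wells set against non-targeting siRNA and turned into robust z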
Scale: viability z-score with doxorubicin: higher = more viable cells under doxorubicin; viability z-score without drug: higher = more viable cells with knock-down alone
Active means: 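a pool counts as active when its viability z-score with doxorubicin is -2 or below and its z-score without drug lies between -2 and 2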
In all, the deposit lists about 17,000 reagents; shown is a random part of them. 788 of them (4.7%) count as active. 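Calls rest on z-score classes alone; an extra cut-off of viability at most 70% of control was not applied to them.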 Further read-outs or replicates are left out here.

For Syp (GeneID 20977) [SID152291208] the deposit lists combined z-score class no change with or without drug; viability z-score with doxorubicin -0.45; viability z-score without drug 0.17; inactive.
After knock-down of Nfia (GeneID 18027) [SID152267061] the results were combined z-score class no change with or without drug; viability z-score with doxorubicin 1.35; viability z-score without drug -0.17; inactive.
Knock-down of Nfia (GeneID 18027) [SID152280220] came out at: combined z-score class no change with or without drug; viability z-score with doxorubicin -0.45; viability z-score without drug -1.01; inactive.
Depletion of Hps1 (GeneID 192236) [SID152299494] came out at: combined z-score class no change with or without drug; viability z-score with doxorubicin -0.34; viability z-score without drug -1.18; inactive.
Against Immp1l (GeneID 66541) [SID152293250], the values are combined z-score class no change with or without drug; viability z-score with doxorubicin 0.22; viability z-score without drug 0.84; inactive.
Knock-down of Brinp3 (GeneID 215378) [SID152296512] came out at: combined z-score class no change with or without drug; viability z-score with doxorubicin 1.12; viability z-score without drug 0.17; inactive.
With knock-down of Wtap (GeneID 60532) [SID152284602], the record shows combined z-score class no change with or without drug; viability z-score with doxorubicin -1.12; viability z-score without drug -0.17; inactive.
For Hilpda (GeneID 69573) [SID152275753], the entry reads combined z-score class high cell count without drug only; viability z-score with doxorubicin 0.67; viability z-score without drug 3.04; inactive.
With knock-down of Bcat2 (GeneID 12036) [SID152296096], the screen gave combined z-score class no change with or without drug; viability z-score with doxorubicin 1.12; viability z-score without drug 0.84; inactive.
With knock-down of Or4a68 (GeneID 258804) [SID152267743], the screen gave combined z-score class no change with or without drug; viability z-score with doxorubicin 1.12; viability z-score without drug 0.34; inactive.
Against Tmem114 (GeneID 74720) [SID152262411], the values are combined z-score class no change with or without drug; viability z-score with doxorubicin 0; viability z-score without drug 0.51; inactive.
Depletion of Necap1 (GeneID 67602) [SID152271847] resulted in: combined z-score class no change with or without drug; viability z-score with doxorubicin 1.12; viability z-score without drug 1.85; inactive.
After knock-down of Cela2a (GeneID 13706) [SID152308066] the results were combined z-score class high cell count without drug only; viability z-score with doxorubicin 0.22; viability z-score without drug 3.2; inactive.
Silencing of Fbxl20 (GeneID 72194) [SID152276661] gave: combined z-score class no change with or without drug; viability z-score with doxorubicin -0.22; viability z-score without drug 0.67; inactive.
With knock-down of Fbxl20 (GeneID 72194) [SID152326651], the screen gave combined z-score class no change with or without drug; viability z-score with doxorubicin 0; viability z-score without drug -0.51; inactive.
Tmem144 (GeneID 70652) [SID152329781] showed combined z-score class no change with or without drug; viability z-score with doxorubicin 0.45; viability z-score without drug -0.84; inactive.
Against Cbr3 (GeneID 109857) [SID152310713], the values are combined z-score class no change with or without drug; viability z-score with doxorubicin 0.22; viability z-score without drug -0.17; inactive.
After knock-down of Tmsb4x (GeneID 19241) [SID152303255], the screen gave combined z-score class low cell count with doxorubicin only; viability z-score with doxorubicin -2.02; viability z-score without drug -0.17; active.
Silencing of Ikzf5 (GeneID 67143) [SID152274482] gave: combined z-score class high cell count with and without drug; viability z-score with doxorubicin 2.47; viability z-score without drug 2.36; inactive.
Depletion of Bud23 (GeneID 66138) [SID152277056] resulted in: combined z-score class no change with or without drug; viability z-score with doxorubicin 1.12; viability z-score without drug 0.51; inactive.
Cables2 (GeneID 252966) [SID152307342] gave combined z-score class no change with or without drug; viability z-score with doxorubicin -0.22; viability z-score without drug 0.84; inactive.
Against Or4c127 (GeneID 258976) [SID152306332], the values are combined z-score class low cell count without drug only; viability z-score with doxorubicin -1.8; viability z-score without drug -2.02; inactive.
For Ccne1 (GeneID 12447) [SID152295091], the entry reads combined z-score class no change with or without drug; viability z-score with doxorubicin 0.56; viability z-score without drug 0.51; inactive.
Knock-down of Snx9 (GeneID 66616) [SID152278723] gave: combined z-score class no change with or without drug; viability z-score with doxorubicin -0.22; viability z-score without drug -0.84; inactive.
Knock-down of Zfp503 (GeneID 218820) [SID152259910] resulted in: combined z-score class no change with or without drug; viability z-score with doxorubicin -0.67; viability z-score without drug -0.84; inactive.
Depletion of Kti12 (GeneID 100087) [SID152324251] came out at: combined z-score class no change with or without drug; viability z-score with doxorubicin -0.45; viability z-score without drug -0.51; inactive.
Knock-down of Atp6v0e (GeneID 11974) [SID152303595] gave: combined z-score class no change with or without drug; viability z-score with doxorubicin 1.12; viability z-score without drug 1.01; inactive.
Silencing of Or4a81 (GeneID 258468) [SID152272463] gave: combined z-score class no change with or without drug; viability z-score with doxorubicin 0; viability z-score without drug -0.84; inactive.
